In publication doi:10.1101/782680:
Results are given in words; binding and its absence hold for the method and conditions named. In cells and extracts the contact can be indirect. Some binding calls cover weakened binding; strength is not graded here. Tags and fused reporters may be left off the sequences shown.

Sequences of proteins named here, by UniProt entry; tags and fusion partners are left off. Residues count along the entry.
UniProt P14784, residues 27-551: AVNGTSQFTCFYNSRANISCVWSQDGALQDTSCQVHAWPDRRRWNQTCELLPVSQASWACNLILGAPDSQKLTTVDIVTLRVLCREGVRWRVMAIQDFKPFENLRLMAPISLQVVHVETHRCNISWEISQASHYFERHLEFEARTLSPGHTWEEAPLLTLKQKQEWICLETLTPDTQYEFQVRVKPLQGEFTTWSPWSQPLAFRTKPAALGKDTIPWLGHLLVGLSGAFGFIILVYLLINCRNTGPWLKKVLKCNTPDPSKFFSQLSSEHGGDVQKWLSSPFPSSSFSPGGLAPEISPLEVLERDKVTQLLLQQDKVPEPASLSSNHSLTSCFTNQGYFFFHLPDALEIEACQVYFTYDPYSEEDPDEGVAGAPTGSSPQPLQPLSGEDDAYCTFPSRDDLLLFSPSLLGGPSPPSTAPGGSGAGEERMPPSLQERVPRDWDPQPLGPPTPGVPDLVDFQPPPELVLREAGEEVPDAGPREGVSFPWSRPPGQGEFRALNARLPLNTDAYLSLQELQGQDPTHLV
UniProt P42229: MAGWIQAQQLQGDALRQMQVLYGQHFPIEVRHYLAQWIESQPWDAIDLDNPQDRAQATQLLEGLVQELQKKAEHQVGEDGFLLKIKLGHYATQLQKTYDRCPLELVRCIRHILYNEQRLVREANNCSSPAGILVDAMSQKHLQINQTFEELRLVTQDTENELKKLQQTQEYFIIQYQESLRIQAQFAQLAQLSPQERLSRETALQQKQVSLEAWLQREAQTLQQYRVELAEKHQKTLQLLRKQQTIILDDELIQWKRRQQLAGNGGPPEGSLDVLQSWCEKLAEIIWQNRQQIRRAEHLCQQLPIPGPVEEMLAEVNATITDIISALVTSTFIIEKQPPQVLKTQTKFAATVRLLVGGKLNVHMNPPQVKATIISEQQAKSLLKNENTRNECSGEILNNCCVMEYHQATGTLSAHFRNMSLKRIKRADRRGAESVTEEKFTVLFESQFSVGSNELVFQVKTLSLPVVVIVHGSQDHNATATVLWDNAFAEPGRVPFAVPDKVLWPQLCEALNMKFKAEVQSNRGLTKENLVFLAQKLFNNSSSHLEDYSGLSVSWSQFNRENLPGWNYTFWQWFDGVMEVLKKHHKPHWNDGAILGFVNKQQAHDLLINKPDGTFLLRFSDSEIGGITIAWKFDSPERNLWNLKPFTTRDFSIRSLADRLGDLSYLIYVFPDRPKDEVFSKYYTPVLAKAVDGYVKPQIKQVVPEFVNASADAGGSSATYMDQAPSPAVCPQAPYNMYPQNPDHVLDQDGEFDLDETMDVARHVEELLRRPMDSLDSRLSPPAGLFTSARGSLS
UniProt P51692: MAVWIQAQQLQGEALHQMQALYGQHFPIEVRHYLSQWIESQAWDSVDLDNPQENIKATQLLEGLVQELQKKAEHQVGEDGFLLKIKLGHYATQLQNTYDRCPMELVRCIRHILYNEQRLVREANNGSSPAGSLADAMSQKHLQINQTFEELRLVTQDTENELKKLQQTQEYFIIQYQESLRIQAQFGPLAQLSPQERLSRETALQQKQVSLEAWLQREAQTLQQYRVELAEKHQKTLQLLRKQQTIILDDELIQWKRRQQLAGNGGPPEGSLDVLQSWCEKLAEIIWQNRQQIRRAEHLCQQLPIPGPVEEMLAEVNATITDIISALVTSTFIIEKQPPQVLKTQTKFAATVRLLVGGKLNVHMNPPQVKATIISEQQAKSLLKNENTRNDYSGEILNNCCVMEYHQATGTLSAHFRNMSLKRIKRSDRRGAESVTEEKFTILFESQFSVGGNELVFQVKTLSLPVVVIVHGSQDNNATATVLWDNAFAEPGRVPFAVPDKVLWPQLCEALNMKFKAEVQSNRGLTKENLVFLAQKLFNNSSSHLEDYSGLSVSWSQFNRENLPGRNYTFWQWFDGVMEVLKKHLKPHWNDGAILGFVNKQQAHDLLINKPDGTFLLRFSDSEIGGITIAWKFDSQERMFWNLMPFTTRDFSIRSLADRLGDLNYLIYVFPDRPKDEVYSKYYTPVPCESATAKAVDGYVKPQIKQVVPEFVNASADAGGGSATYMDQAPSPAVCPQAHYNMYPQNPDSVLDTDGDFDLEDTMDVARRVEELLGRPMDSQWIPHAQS

T1: FLAG-RNF144A (human) (UniProt P50876)
T1 sequence: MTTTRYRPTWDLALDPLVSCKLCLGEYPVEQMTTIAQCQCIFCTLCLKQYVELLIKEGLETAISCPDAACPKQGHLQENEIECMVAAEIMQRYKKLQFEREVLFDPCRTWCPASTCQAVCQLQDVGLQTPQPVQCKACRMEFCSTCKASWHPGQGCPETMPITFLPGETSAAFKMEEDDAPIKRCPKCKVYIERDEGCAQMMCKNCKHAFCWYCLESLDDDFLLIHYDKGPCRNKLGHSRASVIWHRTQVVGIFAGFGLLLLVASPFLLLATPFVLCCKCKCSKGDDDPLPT

B1: FLAG-RNF144A (enzyme, UniProt P50876 1-292)
chain: MTTTRYRPTWDLALDPLVSCKLCLGEYPVEQMTTIAQCQCIFCTLCLKQYVELLIKEGLETAISCPDAACPKQGHLQENEIECMVAAEIMQRYKKLQFEREVLFDPCRTWCPASTCQAVCQLQDVGLQTPQPVQCKACRMEFCSTCKASWHPGQGCPETMPITFLPGETSAAFKMEEDDAPIKRCPKCKVYIERDEGCAQMMCKNCKHAFCWYCLESLDDDFLLIHYDKGPCRNKLGHSRASVIWHRTQVVGIFAGFGLLLLVASPFLLLATPFVLCCKCKCSKGDDDPLPT

What was measured:
FLAG-RNF144A (human) = target: T1, FLAG-RNF144A (human); experiment: co-IP
IL-2Rβ = IL-2Rβ (UniProt P14784); experiment: co-IP

Molecule | binding (FLAG-RNF144A (human)) | binding (IL-2Rβ)
IL-2Rβ (from UniProt P14784 27-551) (receptor) | binds | 
RAF1-GFP (from UniProt P04049 1-648) (enzyme) | binds | 
STAT5A (from UniProt P42229 1-794) | binds | 
STAT5B (from UniProt P51692 1-787) | binds | 
B1 |  | binds
